PubChem BioAssay AID743255 (National Center for Advancing Translational Sciences (NCATS), 2014)
In all, about 390,000 compounds went through this assay and about 910 (0.23%) were called active. Inconclusive means that the source gave no clear call. Such entries were picked first, then a sample of the others. Calls come from the whole dose curve; as a rule, active = well fitted inhibition curve with a large enough effect; inconclusive = small, poorly fitted or top-dose-only effect; inactive = no such curve, though single readings can be large or run the other way. Where the call is inconclusive, the potency comes from a doubtful curve fit.

Amino acid sequences for entries named in this document (tags omitted). A change or cut given only in a name is not applied to a line headed by its entry.
UniProt O94782: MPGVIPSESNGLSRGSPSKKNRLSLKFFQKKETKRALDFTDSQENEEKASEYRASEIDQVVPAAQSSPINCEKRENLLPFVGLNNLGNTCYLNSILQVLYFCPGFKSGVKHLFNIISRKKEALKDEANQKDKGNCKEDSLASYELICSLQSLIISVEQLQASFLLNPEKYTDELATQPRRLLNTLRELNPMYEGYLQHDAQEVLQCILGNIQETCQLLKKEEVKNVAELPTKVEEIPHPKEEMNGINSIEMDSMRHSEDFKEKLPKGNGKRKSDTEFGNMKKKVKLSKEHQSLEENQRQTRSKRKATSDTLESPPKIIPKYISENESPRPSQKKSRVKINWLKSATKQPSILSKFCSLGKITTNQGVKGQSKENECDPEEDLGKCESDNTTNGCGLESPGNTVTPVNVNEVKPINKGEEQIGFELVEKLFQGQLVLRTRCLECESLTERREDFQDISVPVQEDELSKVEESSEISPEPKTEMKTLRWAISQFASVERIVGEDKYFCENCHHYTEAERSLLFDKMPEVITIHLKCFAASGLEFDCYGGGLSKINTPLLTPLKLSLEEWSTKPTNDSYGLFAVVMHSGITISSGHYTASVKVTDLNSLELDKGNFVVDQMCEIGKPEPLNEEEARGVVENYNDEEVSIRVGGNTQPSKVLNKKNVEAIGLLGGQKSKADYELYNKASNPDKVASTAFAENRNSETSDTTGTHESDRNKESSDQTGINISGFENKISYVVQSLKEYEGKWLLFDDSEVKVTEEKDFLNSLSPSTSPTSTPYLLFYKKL

What follows are compounds tested against Ubiquitin carboxyl-terminal hydrolase 1 (Homo sapiens) (UniProt O94782) (assay: Inhibitors of USP1/UAF1: Primary Screen). Details: recombinant USP1/UAF1, Ub-Rhodamine cleavage fluorescence; activity change, negative = inhibition: at 57.1 µM (top of the series).
In short: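 Step one: compound is pinned into 1nM USP1/UAF1 in HEPES pH 7.8 buffer with TCEP. Step two: 15 min room-temperature incubation. Step three: Ub-Rho (150nM final) starts cleavage, tracked by fluorescence over six one-minute reads.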
% is set by controls: 0 for no effect and ±100 for the full control effect; potency is the fitted concentration of half-maximal effect.
Note: nearly all actives have a fitted effect of over 60% in size.

**Q.** How did the Potency turn out when CCOc1ccc(-n2cc(-c3ccccc3)c3c(N4CCOCC4)ncnc32)cc1 was run?
**A.** inconclusive: 10 µM [inhibitor, single point]

**Q.** Cc1cccc(CSc2ncc(Cl)c(C(=O)Nc3sc4c(c3C(N)=O)CCCC4)n2)c1 was tested. Which “activity change, negative = inhibition” value did it give?
**A.** inactive: -16.3%

**Q.** Cc1cc2oc(=O)cc(CN(C)Cc3ccccc3)c2cc1C(C)C was tested. Which Potency did it give?
**A.** inconclusive: 44.7 µM [inhibitor, partial curve]

**Q.** How did the Potency turn out when O=C(Nc1ccccc1Cl)C1CCCN(S(=O)(=O)c2ccc(-n3cnnn3)cc2)C1 (stereo unspecified) was run?
**A.** inconclusive: 35.5 µM [inhibitor, partial curve, poor fit]

**Q.** How did the Potency turn out when COc1cc2ccccc2cc1C(=O)Nc1ccccc1N1CCCC1 was run?
**A.** inconclusive: 31.6 µM [inhibitor, partial curve]

**Q.** Cc1cccc(NS(=O)(=O)c2c(C)nc3sccn3c2=O)c1C was tested. Which Potency did it give?
**A.** inconclusive: 0.316 µM [inhibitor, full curve, poor fit]

**Q.** How did the “activity change, negative = inhibition” value turn out when CCOC(=O)c1sc(=S)n(CC)c1N was run?
**A.** inactive: -24.2%

**Q.** O=C(Oc1cccc(N2C(=O)CCC2=O)c1)C1CC(=O)N(c2ccc(Br)cc2)C1 (stereo unspecified) was tested. Which Potency did it give?
**A.** inconclusive: 1.78 µM [inhibitor, partial curve]

**Q.** How did the Potency turn out when CCC(C)NCCOc1ccc(C)cc1[N+](=O)[O-] (stereo unspecified) was run?
**A.** inconclusive: 15.8 µM [inhibitor, partial curve]

**Q.** How did the Potency turn out when CCOc1ccc(CCNC(=O)c2cc3c(=O)oc4ccc(C)cc4c3s2)cc1OCC was run?
**A.** inconclusive: 7.94 µM [inhibitor, partial curve, poor fit]

**Q.** How did the Potency turn out when Cc1ccc(Cc2c(C)nc3nc(SCC(=O)NC4CCC(C)CC4)nn3c2C)cc1 (stereo unspecified) was run?
**A.** inconclusive: 0.282 µM [inhibitor, full curve]

**Q.** COc1ccccc1NC(=O)c1cc(=O)c2ccc(C)c(C)c2o1 was tested. Which Potency did it give?
**A.** inconclusive: 0.708 µM [inhibitor, full curve, poor fit]

**Q.** With COc1ccc(-c2cn(-c3ccc(C)cc3)c(S(=O)(=O)CC(=O)Nc3ccc(F)cc3)n2)cc1 as the compound, how does the “activity change, negative = inhibition” value read?
**A.** inactive: -20.6%

**Q.** With CCOC(=O)c1ccc2c(c1)N(CC(=O)N(C)c1ccccc1)C(=O)c1ccccc1S2 as the compound, how does the Potency read?
**A.** inconclusive: 35.5 µM [inhibitor, single point]

**Q.** With CCOC(=O)/C=c1/s/c(=C/c2ccc3cc(OC)ccc3c2)c(=O)n1CC(=O)NCC1CCCO1 (stereo unspecified) as the compound, how does the Potency read?
**A.** inconclusive: 2 µM [inhibitor, partial curve]

**Q.** How did the “activity change, negative = inhibition” value turn out when Cc1ccc(C2=NOC(=O)/C2=C\c2ccccc2)cc1 was run?
**A.** inactive: -22%

**Q.** Which Potency does the source give for CCCSc1nnc(NC(=O)c2sc3nc(-c4cccs4)ccc3c2N)s1 here?
**A.** inconclusive: 35.5 µM [inhibitor, partial curve]

**Q.** For CCOC(=O)C1=C(C)N=c2s/c(=C\c3ccc(OCC(=O)O)cc3)c(=O)n2C1c1ccccc1OC (stereo unspecified), which Potency is on record?
**A.** inconclusive: 35.5 µM [inhibitor, single point]

**Q.** Which “activity change, negative = inhibition” value does the source give for CCOC(=O)c1c(NC(=O)C2CC2)sc(C)c1CC here?
**A.** inactive: -15.4%

**Q.** How did the Potency turn out when NC1=NC[C@H](Cc2ccc(O)cc2)N1CCc1cccc2ccccc12 was run?
**A.** inconclusive: 8.91 µM [inhibitor, partial curve, poor fit]

**Q.** With O=S(=O)(NCCc1csc(-c2ccccc2)n1)c1ccc2c(c1)OCCO2 as the compound, how does the “activity change, negative = inhibition” value read?
**A.** inactive: -18.6%

**Q.** Which Potency does the source give for O=C(Nc1ccsc1C(=O)O)c1cccc(C(F)(F)F)c1 here?
**A.** inconclusive: 31.6 µM [inhibitor, partial curve, poor fit]

**Q.** For C=CCNC(=S)NNC(=O)c1cccn(Cc2ccc(Cl)cc2Cl)c1=O, which “activity change, negative = inhibition” value is on record?
**A.** inactive: -13.3%

**Q.** Which Potency does the source give for CCOc1cc(C(=O)NCCc2sc(-c3ccc(F)cc3)nc2C)cc(OCC)c1OCC here?
**A.** inconclusive: 50.1 µM [inhibitor, partial curve, poor fit]

**Q.** Cc1ccc(SCCC(=O)OCn2nnc3ccccc3c2=O)cc1 was tested. Which Potency did it give?
**A.** inconclusive: 5.01 µM [inhibitor, partial curve]

**Q.** For Cc1sc(NC(=O)c2cc(-c3ccccc3)nc3ccccc23)c(C(N)=O)c1C, which “activity change, negative = inhibition” value is on record?
**A.** inactive: -19.4%

**Q.** For C#CCn1c(=NC(=O)c2sc3ccccc3c2Cl)sc2cc(S(N)(=O)=O)ccc21, which “activity change, negative = inhibition” value is on record?
**A.** inactive: -19.2%

**Q.** Which Potency does the source give for O=C(NCCc1ccccc1)c1nc(-c2ccc(Cl)cc2)n2c1CCCCC2 here?
**A.** inconclusive: 1 µM [inhibitor, full curve]

**Q.** Which “activity change, negative = inhibition” value does the source give for COc1ccccc1C(=O)Nc1ccccc1OCc1cc(=O)n2ccccc2n1 here?
**A.** inactive: -20.7%

**Q.** Which “activity change, negative = inhibition” value does the source give for CSc1ccccc1-n1nnnc1SCc1ccccc1 here?
**A.** inactive: -24.2%

**Q.** With COc1cccc(/C=C2\SC(=O)NC2=O)c1OCc1ccc(C(=O)O)cc1 as the compound, how does the Potency read?
**A.** inconclusive: 7.08 µM [inhibitor, single point]

**Q.** CCOC(=O)c1nn(-c2ccc(Cl)cc2)c2nnc(Cc3ccc(C)cc3)c(=O)n12 was tested. Which “activity change, negative = inhibition” value did it give?
**A.** inactive: -25.1%

**Q.** COc1cc(OC)c2ccc(=O)oc2c1C(CC(=O)N1CCOCC1)c1ccc(N(C)C)cc1 (stereo unspecified) was tested. Which Potency did it give?
**A.** inconclusive: 2.51 µM [inhibitor, full curve, poor fit]

**Q.** Which Potency does the source give for NS(=O)(=O)c1ccc(Nc2nc(-c3cccc([N+](=O)[O-])c3)cs2)cc1 here?
**A.** inconclusive: 11.2 µM [inhibitor, full curve, poor fit]

**Q.** Which Potency does the source give for Cc1c(C(=O)Nc2nc(-c3ccc(F)cc3)ns2)oc2ccc(Cl)cc12 here?
**A.** inconclusive: 50.1 µM [inhibitor, partial curve, poor fit]

**Q.** With COc1ccc(NC(=O)CN(c2cc(C)cc(C)c2)S(=O)(=O)c2c(C)noc2C)cc1OC as the compound, how does the Potency read?
**A.** inconclusive: 1 µM [inhibitor, full curve]

**Q.** CCCCC1SC(N)=NC1=O (stereo unspecified) was tested. Which activity change, negative = inhibition did it give?
**A.** inconclusive: -23% [inhibitor]

**Q.** How did the Potency turn out when COc1ccccc1NC(=O)CSc1nc(-c2ccc(C(C)(C)C)cc2)c(C#N)c(=O)[nH]1 was run?
**A.** inconclusive: 39.8 µM [inhibitor, partial curve]

**Q.** CC(C)Cc1ccc(C(C)C(=O)OCC(=O)c2c[nH]c3ccccc23)cc1 (stereo unspecified) was tested. Which “activity change, negative = inhibition” value did it give?
**A.** inactive: -12.2%

**Q.** Which “activity change, negative = inhibition” value does the source give for COc1cccc(NC(=O)CN(C)C(=O)CNC(=O)c2sc3ccccc3c2Cl)c1 here?
**A.** inactive: -10.1%

**Q.** With COC(=O)c1cc(COc2ccc3oc(C)c(C(=O)OC)c3c2)c(C)o1 as the compound, how does the Potency read?
**A.** inconclusive: 31.6 µM [inhibitor, partial curve]

**Q.** CCCn1c(SCC(=O)N2c3ccc(F)cc3CCC2C)nnc1-c1ccccn1 (stereo unspecified) was tested. Which “activity change, negative = inhibition” value did it give?
**A.** inactive: -9.63%

**Q.** COc1ccc(NC(=O)C2CCCN(S(=O)(=O)c3ccc(Br)s3)C2)cc1 (stereo unspecified) was tested. Which Potency did it give?
**A.** inconclusive: 2 µM [inhibitor, full curve, poor fit]

**Q.** Which Potency does the source give for NC(CO)C(=O)NNCc1ccc(O)c(O)c1O (stereo unspecified) here?
**A.** inconclusive: 39.8 µM [inhibitor, partial curve]

**Q.** With CC(=O)Oc1cc2cccc(OC(C)=O)c(=O)c2c(OC(C)=O)c1OC(C)=O as the compound, how does the Potency read?
**A.** inconclusive: 31.6 µM [inhibitor, partial curve]

**Q.** CCOC(=O)c1c(-c2ccc(C)cc2)csc1NC(=O)c1cc(=O)c2ccc(C)cc2o1 was tested. Which Potency did it give?
**A.** inconclusive: 2 µM [inhibitor, partial curve, poor fit]

**Q.** Cc1ccc(C(=O)OCC(=O)Nc2ccc(C)c(S(=O)(=O)N3CCCCC3)c2)o1 was tested. Which Potency did it give?
**A.** inconclusive: 50.1 µM [inhibitor, partial curve, poor fit]

**Q.** CC(C)n1nnnc1SCC(=O)N(C)C1CCS(=O)(=O)C1 (stereo unspecified) was tested. Which Potency did it give?
**A.** inconclusive: 0.316 µM [inhibitor, full curve, poor fit]

**Q.** Which “activity change, negative = inhibition” value does the source give for COc1cc(/C=C2\SC(=S)N(NS(=O)(=O)c3ccc(C)cc3)C2=O)ccc1O here?
**A.** inactive: -26.3%

**Q.** How did the Potency turn out when c1ccc(CNc2nc(-c3cccs3)nc3ccccc23)cc1 was run?
**A.** inconclusive: 50.1 µM [inhibitor, partial curve, poor fit]

**Q.** O=C(COc1ccc(Br)cc1F)NCC1(N2CCCCC2)CCCCC1 was tested. Which Potency did it give?
**A.** inconclusive: 5.01 µM [inhibitor, partial curve]

**Q.** O=C(CC1Oc2ccccc2NC1=O)NCCCN1CCN(Cc2ccccc2)CC1 (stereo unspecified) was tested. Which Potency did it give?
**A.** inconclusive: 1.41 µM [inhibitor, full curve, poor fit]

**Q.** Which Potency does the source give for COc1ccc(CC(=O)NCC(c2cccs2)S(=O)(=O)c2ccc(C)cc2)cc1 (stereo unspecified) here?
**A.** inconclusive: 0.112 µM [inhibitor, full curve, poor fit]

**Q.** Which “activity change, negative = inhibition” value does the source give for COc1cccc(CNC(=O)Cc2c(C(=O)O)c(C)cn2C)c1 here?
**A.** inactive: -9.5%

**Q.** For CC1CCN(C(=O)c2cc(-c3ccc(Br)cc3)on2)CC1, which “activity change, negative = inhibition” value is on record?
**A.** inactive: -18%

**Q.** With COc1cc2[nH]c(=S)nc(NCCC(C)C)c2cc1OC as the compound, how does the Potency read?
**A.** inconclusive: 5.62 µM [inhibitor, partial curve]

**Q.** For O=C(CCC(=O)N1CC2CCCN2c2ccccc21)NCc1ccc(Cl)cc1 (stereo unspecified), which Potency is on record?
**A.** inconclusive: 35.5 µM [inhibitor, partial curve]

**Q.** Which Potency does the source give for CCCc1cc(=O)[nH]c(SCC(=O)NCc2ccc3c(c2)OCO3)n1 here?
**A.** inconclusive: 4.47 µM [inhibitor, partial curve]

**Q.** For Cc1occc1C(=O)NNC(=O)Nc1ccc(Cl)c(Cl)c1, which “activity change, negative = inhibition” value is on record?
**A.** inactive: -3.9%

**Q.** Which Potency does the source give for O=CN/C=C/c1cc(O)ccc1O here?
**A.** inconclusive: 50.1 µM [inhibitor, partial curve, poor fit]

**Q.** With CC(C)(c1ccccc1)c1ccc(OCCn2cnc3ccccc3c2=O)cc1 as the compound, how does the Potency read?
**A.** inconclusive: 56.2 µM [inhibitor, partial curve, poor fit]

**Q.** COc1ccc(-c2nc3ccc(NS(=O)(=O)c4ccc(C)cc4)cc3o2)cc1 was tested. Which “activity change, negative = inhibition” value did it give?
**A.** inactive: -21.8%

**Q.** Which Potency does the source give for CCOC(=O)C1CCCN(C2=C(NS(=O)(=O)c3ccc(Br)cc3)C(=O)c3ccccc3C2=O)C1 (stereo unspecified) here?
**A.** inconclusive: 31.6 µM [inhibitor, partial curve]

**Q.** For CCCOc1cccc(C(=O)Nc2cccc3cccnc23)c1, which Potency is on record?
**A.** inconclusive: 7.94 µM [inhibitor, single point]

**Q.** How did the Potency turn out when COc1ccccc1NC(=S)N1CCN(c2nc(-c3ccccc3)cs2)CC1 was run?
**A.** inconclusive: 15.8 µM [inhibitor, partial curve]

**Q.** For O=C(NCc1ccco1)c1ccc(CNc2c(N3CCCCC3)c(=O)c2=O)cc1, which Potency is on record?
**A.** inconclusive: 5.01 µM [inhibitor, partial curve]
